# Measured values from PubChem BioAssay AID602313 (National Center for Advancing Translational Sciences (NCATS), 2012).
# Out of some 390,000 compounds screened, about 760 (0.19%) were called active. The inconclusive results got no clear call from the source; some entries with a clear call stand among them for comparison. The call rests on the fitted dose curve; in most records, active means well fitted inhibition curve with a large enough effect; inconclusive means small, poorly fitted or top-dose-only effect; inactive means flat fitted curve, though single readings scatter. Where the call is inconclusive, the potency comes from a doubtful curve fit.
# Experiment: qHTS for Inhibitors of Vif-A3F Interactions: qHTS; further: nearly all actives have a fitted effect of over 65% in size
# Conditions: HeLa A3F-eYFP + Vif (tagged APOBEC3F with the HIV-1 protein that degrades it), YFP fluorescence increase; series mostly up to 46.1 µM
# Procedure, shortened: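 HeLa cells stably expressing A3F-eYFP plus Vif, plated and incubated overnight at 37 deg C, then exposed to compounds overnight at 37 deg C. Blocked degradation read as raised yellow fluorescence (Ex 488/Em 500-530).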
# Potency means the concentration at half of the fitted maximal effect.
row,Structure (SMILES),Potency
1,CCN(C(=O)COC(=O)c1cc2c(s1)CCC(C)C2)c1c(N)n(Cc2ccccc2)c(=O)[nH]c1=O (configuration not stated),"inconclusive: 22.4 µM [inhibitor, single point]"
2,CSc1nc2ccc(NS(=O)(=O)c3c(Cl)cccc3Cl)cc2s1,"inconclusive: 28.2 µM [inhibitor, single point]"
3,Cn1c(/C=N/Nc2nc3ccccc3[nH]2)nc2ccccc21,"inconclusive: 25.1 µM [inhibitor, partial curve, poor fit]"
4,Fc1cccc2sc(Nc3nc4cc5c(cc4s3)OCO5)nc12,"inconclusive: 35.5 µM [inhibitor, single point]"
5,CCOc1ccc(NC(=O)c2ccc(NC(=S)NC3CCCCC3)cc2)cc1,"inconclusive: 39.8 µM [inhibitor, partial curve, poor fit]"
6,Fc1cccc(-c2nnn3c2nc(NCc2ccc4c(c2)OCO4)c2ccccc23)c1,"inconclusive: 6.31 µM [inhibitor, single point]"
7,CCOC(=O)c1ccc(NC(=O)c2nc[nH]c2C(=O)N[C@@H](Cc2ccccc2)C(=O)OC(C)(C)C)cc1,"inconclusive: 35.5 µM [inhibitor, single point]"
8,Cc1ccc(NC(=O)N2CCCC2C(=O)Nc2c(C)cc(C)cc2C)cc1 (configuration not stated),"inconclusive: 0.631 µM [inhibitor, partial curve, poor fit]"
9,CCOC(=O)CSc1nc(-c2ccc3c(c2)OCO3)ccc1C#N,inactive
10,CCn1cc([N+](=O)[O-])nc1C,"inconclusive: 35.5 µM [inhibitor, single point]"
11,CCCCNc1c2c3c(cccc3n(C)c1=O)C(=O)c1ccccc1-2,"inconclusive: 3.16 µM [inhibitor, partial curve, poor fit]"
12,O=C1/C(=C/c2ccc(O)c(O)c2)Oc2cc(O)ccc21,"inconclusive: 14.1 µM [inhibitor, partial curve, poor fit]"
13,O=[N+]([O-])c1ccc(Nc2ccccc2O)c([N+](=O)[O-])c1,"inconclusive: 35.5 µM [inhibitor, single point]"
14,O=S(=O)(Nc1cc2nc3ccccc3nc2n1Cc1ccccc1)c1ccc(Cl)cc1,"inconclusive: 15.8 µM [inhibitor, partial curve, poor fit]"
15,O=C(NC(=S)NC1C2CC3CC(C2)CC1C3)c1ccccc1 (configuration not stated),"inconclusive: 3.55 µM [inhibitor, partial curve, poor fit]"
16,O=c1c2ccccc2sn1-c1nccs1,inactive
17,Cc1c(Cc2ccc3c(c2)OCO3)sc(NC(=O)c2ccccc2)c1C(N)=O,"inconclusive: 35.5 µM [inhibitor, single point]"

# Some of these compounds in order of SMILES length, low to high:
row,Structure (SMILES),Potency
16,O=c1c2ccccc2sn1-c1nccs1,inactive
9,CCOC(=O)CSc1nc(-c2ccc3c(c2)OCO3)ccc1C#N,inactive
14,O=S(=O)(Nc1cc2nc3ccccc3nc2n1Cc1ccccc1)c1ccc(Cl)cc1,"inconclusive: 15.8 µM [inhibitor, partial curve, poor fit]"
